Source: article PMC3558502, “Acaricide, Fungicide and Drug Interactions in Honey Bees (Apis mellifera)” (PLoS ONE, 2013)
Marks after values point to notes of the source that are not given here.

Tests used:
honey bees = conditions: reported concentrations of acaricides in bees; cited from earlier work
[1] = tested on: honey bees (Apis mellifera); assay: Lethal dose bioassay: antimicrobial drugs fed in sucrose syrup, then topical acaricide dose series, 2010
[2] = oral pre-treatment: oxytetracycline

Row | SMILES | reported exposure, max. (honey bees) | reported mean exposure (honey bees) | intercept ± SE of log-probit dose-response line ([1]; oral pre-treatment: control) | slope ± SE of log-probit dose-response line ([1]; oral pre-treatment: control) | intercept ± SE of log-probit dose-response line ([1]; oral pre-treatment: fumagillin) | slope ± SE of log-probit dose-response line ([1]; oral pre-treatment: fumagillin) | intercept ± SE of log-probit dose-response line [1, 2] | slope ± SE of log-probit dose-response line [1, 2] | intercept ± SE of log-probit dose-response line ([1]; oral pre-treatment: tylosin) | slope ± SE of log-probit dose-response line ([1]; oral pre-treatment: tylosin)
1 | Cc1ccc(/N=C/N(C)/C=N/c2ccc(C)cc2C)c(C)c1 [amitraz] | 9.04^a µg/bee | 0.15^a µg/bee | -2.21 ± 0.33 | 2.99 ± 0.38 | -2.21 ± 0.34 | 3.75 ± 0.52 | -2.38 ± 0.30 | 4.23 ± 0.54 | -2.16 ± 0.22 | 3.29 ± 0.29
2 | CCOP(=S)(OCC)Oc1ccc2c(C)c(Cl)c(=O)oc2c1 [coumaphos] | 3.20^b µg/bee | 0.09^a µg/bee |  |  |  |  |  |  |  | 
3 | CC(C)[C@@H](Nc1ccc(C(F)(F)F)cc1Cl)C(=O)OC(C#N)c1cccc(Oc2ccccc2)c1 (stereo partly shown) [tau-fluvalinate] | 0.70^a µg/bee | 0.04^a µg/bee | -1.91 ± 0.13 | 1.98 ± 0.14 | -1.36 ± 0.16 | 1.99 ± 0.22 | -2.48 ± 0.19 | 2.68 ± 0.21 | -2.37 ± 0.32 | 2.32 ± 0.34
